The record followed here is paper PMC5907460.

By UniProt entry, the sequences of proteins in these tests, tags left out.
UniProt Q9NZI8: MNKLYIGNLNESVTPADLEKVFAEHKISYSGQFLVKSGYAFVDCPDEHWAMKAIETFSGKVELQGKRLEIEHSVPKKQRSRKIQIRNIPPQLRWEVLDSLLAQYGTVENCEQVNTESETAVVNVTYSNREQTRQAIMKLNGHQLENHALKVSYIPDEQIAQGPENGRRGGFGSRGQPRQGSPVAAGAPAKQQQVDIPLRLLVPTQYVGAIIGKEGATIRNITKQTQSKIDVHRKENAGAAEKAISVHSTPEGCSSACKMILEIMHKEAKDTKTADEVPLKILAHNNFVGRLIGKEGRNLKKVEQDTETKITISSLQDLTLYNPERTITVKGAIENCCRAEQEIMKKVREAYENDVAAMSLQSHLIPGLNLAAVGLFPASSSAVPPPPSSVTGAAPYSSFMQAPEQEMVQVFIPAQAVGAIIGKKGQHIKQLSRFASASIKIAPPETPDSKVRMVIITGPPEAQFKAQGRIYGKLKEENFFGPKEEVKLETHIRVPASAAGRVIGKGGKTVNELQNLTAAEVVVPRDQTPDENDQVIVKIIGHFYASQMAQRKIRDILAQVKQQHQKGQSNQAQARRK
UniProt A5YKK6: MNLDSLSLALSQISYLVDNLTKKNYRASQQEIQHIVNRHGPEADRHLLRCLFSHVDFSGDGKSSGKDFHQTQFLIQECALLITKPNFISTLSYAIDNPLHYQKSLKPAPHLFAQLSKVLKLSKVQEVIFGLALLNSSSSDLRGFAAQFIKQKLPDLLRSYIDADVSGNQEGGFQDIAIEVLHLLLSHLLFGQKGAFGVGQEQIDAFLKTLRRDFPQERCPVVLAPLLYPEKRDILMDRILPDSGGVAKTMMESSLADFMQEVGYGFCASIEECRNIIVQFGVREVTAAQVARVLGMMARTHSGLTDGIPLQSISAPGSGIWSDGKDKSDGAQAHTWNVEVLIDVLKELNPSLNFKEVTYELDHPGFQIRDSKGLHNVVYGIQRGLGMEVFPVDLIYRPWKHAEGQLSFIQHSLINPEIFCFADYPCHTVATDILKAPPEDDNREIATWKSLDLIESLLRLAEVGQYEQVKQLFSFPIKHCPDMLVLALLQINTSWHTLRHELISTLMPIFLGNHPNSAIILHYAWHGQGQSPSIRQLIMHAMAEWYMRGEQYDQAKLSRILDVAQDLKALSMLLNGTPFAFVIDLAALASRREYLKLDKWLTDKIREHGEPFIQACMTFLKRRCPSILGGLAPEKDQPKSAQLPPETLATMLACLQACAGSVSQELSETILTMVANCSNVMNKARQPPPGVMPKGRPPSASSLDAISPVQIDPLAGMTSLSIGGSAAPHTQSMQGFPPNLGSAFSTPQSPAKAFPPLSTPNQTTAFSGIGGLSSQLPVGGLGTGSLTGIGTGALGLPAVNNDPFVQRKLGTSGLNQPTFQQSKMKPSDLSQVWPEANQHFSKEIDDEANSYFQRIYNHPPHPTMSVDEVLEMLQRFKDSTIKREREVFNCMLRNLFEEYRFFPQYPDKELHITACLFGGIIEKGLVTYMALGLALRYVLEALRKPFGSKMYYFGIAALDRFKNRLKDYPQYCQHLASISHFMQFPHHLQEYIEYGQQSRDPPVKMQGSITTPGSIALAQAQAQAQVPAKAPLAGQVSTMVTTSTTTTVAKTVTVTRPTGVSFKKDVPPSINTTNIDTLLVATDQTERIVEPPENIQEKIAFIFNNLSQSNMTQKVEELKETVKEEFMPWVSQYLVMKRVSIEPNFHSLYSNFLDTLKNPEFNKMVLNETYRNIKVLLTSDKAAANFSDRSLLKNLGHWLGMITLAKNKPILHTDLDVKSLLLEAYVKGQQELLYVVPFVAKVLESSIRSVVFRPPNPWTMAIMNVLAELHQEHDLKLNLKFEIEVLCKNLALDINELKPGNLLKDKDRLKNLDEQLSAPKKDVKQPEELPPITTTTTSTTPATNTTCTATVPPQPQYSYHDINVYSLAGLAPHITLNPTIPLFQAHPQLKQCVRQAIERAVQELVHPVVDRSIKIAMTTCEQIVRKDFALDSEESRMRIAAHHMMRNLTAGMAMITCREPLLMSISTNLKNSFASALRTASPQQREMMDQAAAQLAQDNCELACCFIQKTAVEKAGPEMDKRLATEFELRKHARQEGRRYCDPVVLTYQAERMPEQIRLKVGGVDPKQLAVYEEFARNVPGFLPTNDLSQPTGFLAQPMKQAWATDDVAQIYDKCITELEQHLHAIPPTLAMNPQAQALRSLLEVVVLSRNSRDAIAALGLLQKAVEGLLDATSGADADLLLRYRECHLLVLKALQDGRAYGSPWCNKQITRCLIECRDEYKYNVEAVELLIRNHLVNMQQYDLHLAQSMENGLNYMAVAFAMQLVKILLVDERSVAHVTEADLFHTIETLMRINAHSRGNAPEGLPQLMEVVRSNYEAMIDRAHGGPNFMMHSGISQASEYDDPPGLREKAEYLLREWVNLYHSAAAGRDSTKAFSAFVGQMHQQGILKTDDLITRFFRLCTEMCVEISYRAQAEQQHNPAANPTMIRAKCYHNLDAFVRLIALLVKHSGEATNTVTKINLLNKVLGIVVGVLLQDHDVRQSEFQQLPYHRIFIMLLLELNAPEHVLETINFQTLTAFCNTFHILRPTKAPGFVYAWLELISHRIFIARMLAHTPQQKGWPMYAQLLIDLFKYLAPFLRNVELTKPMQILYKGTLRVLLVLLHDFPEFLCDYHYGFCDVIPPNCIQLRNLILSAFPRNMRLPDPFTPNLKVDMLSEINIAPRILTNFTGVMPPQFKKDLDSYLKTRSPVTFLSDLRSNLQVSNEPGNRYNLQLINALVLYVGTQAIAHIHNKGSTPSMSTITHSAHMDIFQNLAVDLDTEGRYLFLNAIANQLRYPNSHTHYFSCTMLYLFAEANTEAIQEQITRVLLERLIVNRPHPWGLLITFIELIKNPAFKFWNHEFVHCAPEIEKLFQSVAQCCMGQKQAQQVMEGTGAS

For the assay, the target named is Flag-tagged IMP1-GFP (insulin-like growth factor 2 messenger RNA binding protein, IMP1) (UniProt Q9NZI8). Description: co-IP; immunoprecipitation with GFP antibody on protein A agarose from lysates of MDA231/IMP1-GFP and MDA231/GFP cells (20 mM Tris-HCl pH 7.5, 50 mM NaCl, 5 mM MgCl2, 0.5% NP-40, with RNasin, 4 °C, 4 h); CNOT1 detected by immunoblot.

These are yes or no findings as the source states them, for the method shown. Binding seen in cells or lysates may run through a third protein. Some results given as binding are weak or reduced against the parent protein; the word gives no strength.

In the case of “CNOT1, a scaffold protein of the CCR4-NOT complex (from UniProt A5YKK6 1-2376)”, the binding result is “binds”.
